Laboratory results: patent US20190367628A1
Positions count from the first letter of the chain named. No constants are given. Whether binding was seen depends on the method and setting. Some results given as binding are weak or reduced against the parent protein; the word gives no strength.

B1: H2/L2-18 scFv (scFv)
scFv: QAQLQGSGGGVVQPGRSLRLSCAASGFTFSSYGMHWVRQAPGKGLEWVAVISYKGSHKYYADSVKGRFTISRDNSKNTLYLQMNSLRAEDTAVYYCGGSGYALHDDYYGLDVWGQGTLVTVSSSGGGGSGGGGSGGGGSGGGGSQSALTQPASVSGSPGQSITISCTGTSSDVGGYNYVSWYQQHPGKAPKLMIYDVSNRPWGVSNRFSGSKFGNTASLTISGLQAEDEADYYCSSYTSSSTLYVFGSGTKVTVL
B2: H2/L2-47 scFv (scFv)
scFv: B1 scFv with A2V, G6S, G8E, H57N
B3: H2/L2-34 scFv (scFv)
scFv: B1 scFv with A2V, G6D, G8E, K54T, S56T, H57K, T242A, L255M
B4: H2/L2-88 scFv (scFv)
scFv: B1 scFv with A2V, G6S, G8E, H57N, D196E, P201L, W202R, T242A
B5: H2/L2-83 scFv (scFv)
scFv: B1 scFv with H57N, D196E, P201L, W202R
B6: H2/L2-68 scFv (scFv)
scFv: B1 scFv with G6S, G8E, K54R, S56F, H57N, L110Q, P201L, W202S
B7: H2/L2-80 scFv (scFv)
scFv: B1 scFv with A2V, G6S, K54T, H57N, P201A, T242A
B8: H2/L2-20 scFv (scFv)
scFv: B1 scFv with G6S, F29V, K54T, H57N, P201L, W202R, T242A
B9: H2/L2-36 scFv (scFv)
scFv: B1 scFv with G6S, H57N, D196E, P201L, W202R
B10: PI-61 (monoclonal phage clone) (protein)
VH: QVQLQESGGGVVQPGRSLRLSCAASGFTFSSYGMHWVRQAPGKGLEWVAVISYDGSNKYYADSVKGRFTISRDNSKNTLYLQMNSLRAEDTAVYYCGGSGYALHDDYYGLDVWGQGTLVTVSS
VL: QSALTQPASVSGSPGQSITISCTGTSSDVGGYNYVSWYQQHPGKAPKLMIYDVSNRPSGVSNRFSGSKSGNTASLTISGLQAEDEADYYCSSYTSSSTLYVFGSGTKVTVL

Each binder was assayed against Cyno BCMA APP-Avi (cynomolgus) (assay: flow cytometry, yeast-displayed scFv labelled with biotinylated cyno BCMA at 20 nM, 900 pM or none).

Binder | binding
B1 | binds
B2 | binds
B3 | binds
B4 | binds
B5 | binds
B6 | binds
B7 | binds
B8 | binds
B9 | binds

What follows are binders tested against biotinylated human IgG1 Fc (Jackson Immunoresearch cat #009-060-008) (human) [IgG part: P01857] (assay: monoclonal phage ELISA, anti-M13-HRP, Abs450 against fold dilution of phage).

Binder | binding
B10 | no binding (tested: fold dilution 1 (undiluted phage))
